Measurements reported in article doi:10.1101/2025.06.18.660225.
No constants are given. Whether binding was seen depends on the method and setting. Binding seen in cells or lysates may run through a third protein. Some entries that bind do so weakly or less than the wild type. Where a sequence is shown, tags or fusion partners need not be part of it.

Target: T1, Prp45-HA (full-length Prp45) (S. cerevisiae) (UniProt P28004)
T1 sequence: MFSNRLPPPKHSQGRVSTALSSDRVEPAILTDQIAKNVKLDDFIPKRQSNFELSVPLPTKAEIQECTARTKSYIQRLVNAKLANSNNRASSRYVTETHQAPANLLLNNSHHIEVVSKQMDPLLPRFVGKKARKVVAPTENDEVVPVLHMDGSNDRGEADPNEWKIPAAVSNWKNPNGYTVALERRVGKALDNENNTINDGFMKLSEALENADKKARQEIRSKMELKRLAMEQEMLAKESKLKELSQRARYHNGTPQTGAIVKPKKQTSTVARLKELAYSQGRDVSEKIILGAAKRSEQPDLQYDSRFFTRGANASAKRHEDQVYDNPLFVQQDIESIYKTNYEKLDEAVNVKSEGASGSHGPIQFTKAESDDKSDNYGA
Test: co-IP

- binding: binds
B1: Lge1-FLAG (protein, UniProt Q02796 1-332)
chain: MSGYTGNNYSRYSSTPPRQRGGYHHARRSRGGAGGSYYRGGNASYGARYNSDYEQPPQEGDLRQTGAYYRNGYTDTRPYYSANSRHYQAQPSPRYNNGTNSYHLPQRGNSQDTNGRTTSASQEDNDEKRVKSRYRNMQADHPRQQPMSVGSTSSRNGSSGNSSTSSTSNGLPPPPSVSSITNNRSYHSSAYPYSSSHTYNNYHHRETPPPPPSNGYYAKGYPVHVPENRSNSDGSSSSVVKKKRILDMKDSPFIYLTDFDKNVKKTNNTESECEKAREVFKESDSIDSALEELNLKINSNELELRLLNNQCDKHALNIQLTQEKLDSLLLMQ
